These are yes or no findings as the source states them, for the method shown. In cells and extracts the contact can be indirect. Some entries that bind do so weakly or less than the wild type. For part of these data: Sequences can lack the tags named with a protein.
T1: TREM-2 (endogenous, CD4+ T cells and lung tissue) (human (endogenous in CD4+ T cells and lung tissue)) (UniProt Q9NZC2)
T1 sequence: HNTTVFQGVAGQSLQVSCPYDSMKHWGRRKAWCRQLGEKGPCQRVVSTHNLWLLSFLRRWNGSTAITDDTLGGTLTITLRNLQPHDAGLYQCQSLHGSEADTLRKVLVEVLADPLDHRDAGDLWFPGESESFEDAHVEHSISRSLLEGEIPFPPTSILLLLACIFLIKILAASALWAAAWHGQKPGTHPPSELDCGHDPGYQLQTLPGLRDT

T2: HA-tagged TREM-2 full-length (triggering receptor expressed on myeloid cells 2) (human) (UniProt Q9NZC2)
T2 sequence: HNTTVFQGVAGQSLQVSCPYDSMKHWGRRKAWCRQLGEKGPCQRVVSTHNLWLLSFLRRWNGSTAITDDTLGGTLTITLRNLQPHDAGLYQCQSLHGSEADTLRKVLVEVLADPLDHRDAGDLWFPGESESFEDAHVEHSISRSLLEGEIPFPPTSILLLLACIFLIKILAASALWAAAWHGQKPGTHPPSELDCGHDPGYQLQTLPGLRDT


What was measured:
Experiment in all cases: co-IP
[1] = molecular target: T1, TREM-2 (endogenous, CD4+ T cells and lung tissue) (human (endogenous in CD4+ T cells and lung tissue))
[2] = molecular target: T2, HA-tagged TREM-2 full-length (triggering receptor expressed on myeloid cells 2) (human)
[3] = molecular target: FLAG-tagged SARS-CoV-2 M protein (membrane protein) (SARS-CoV-2) (UniProt P0DTC5)

Molecule	binding [1]	binding [2]	also measured
CD3ζ (endogenous, CD4+ T cells and lung tissue) (from UniProt P20963-1 22-164)	binds	–	–
FLAG-tagged SARS-CoV-2 M protein (membrane protein) (from UniProt P0DTC5 1-222)	–	binds	–
Myc-tagged CD3ζ (from UniProt P20963-1 22-164)	–	binds	–
SARS-CoV-2 M protein in lung tissue of a patient with COVID-19 (from UniProt P0DTC5 1-222)	binds	–	–
ZAP70 (ζ-chain associated protein of 70 kDa; endogenous, CD4+ T cells and lung tissue) (from UniProt P43403 1-619) (enzyme)	binds	–	–
HA-tagged TREM-2 full-length (triggering receptor expressed on myeloid cells 2) (receptor, UniProt Q9NZC2 19-230) HNTTVFQGVAGQSLQVSCPYDSMKHWGRRKAWCRQLGEKGPCQRVVSTHNLWLLSFLRRWNGSTAITDDTLGGTLTITLRNLQPHDAGLYQCQSLHGSEADTLRKVLVEVLADPLDHRDAGDLWFPGESESFEDAHVEHSISRSLLEGEIPFPPTSILLLLACIFLIKILAASALWAAAWHGQKPGTHPPSELDCGHDPGYQLQTLPGLRDT	–	–	binding [3]: binds
